Data as given in PubChem BioAssay AID1259254 (NCATS, 2017)
In all, the deposit lists about 59,000 reagents; this is a part drawn at random. In the full data, about 1,550 (2.6%) got an active call. 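G2 share is only a proxy for re-replication; each gene was hit by three separate siRNAs, and active genes were retested.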 Unmarked entries are inactive. Reagents against one gene are numbered here. Not all columns of the deposit are shown. Not stated in the record: the amount of reagent.

Assay: 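Finding genes that stop cells copying their DNA twice in one cycle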 (primary screen)
System: human HCT116 colorectal cancer cells
Knock-down reagent: single siRNA against human genes
Time to read-out: 3 days
Measured: 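Nuclei stained with Hoechst and imaged; cell-cycle phase assigned by DNA content; G2 share scaled per plate, non-targeting siRNA 0%, GMNN siRNA 100%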
Direction: G2 robust z-score: higher = more G2 cells, more excess DNA replication
Call rule: 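Active siRNAs have a G2 robust z of 5 or more median absolute deviations over the median, which in these data means about 38% or higher of GMNN control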

{"target": "SMARCAL1", "reagent": 1, "G2 robust z-score": 0.176}
{"target": "SMARCAL1", "reagent": 2, "G2 robust z-score": 0.669}
{"target": "SMARCAL1", "reagent": 3, "G2 robust z-score": "5.39 (active)"}
{"target": "COL4A3", "reagent": 1, "G2 robust z-score": -0.331}
{"target": "COL4A3", "reagent": 2, "G2 robust z-score": -0.0677}
{"target": "COL4A3", "reagent": 3, "G2 robust z-score": -0.285}
{"target": "INTS3", "reagent": 1, "G2 robust z-score": 0.43}
{"target": "INTS3", "reagent": 2, "G2 robust z-score": -0.88}
{"target": "INTS3", "reagent": 3, "G2 robust z-score": 0.279}
{"target": "MRGPRF", "reagent": 1, "G2 robust z-score": 2.07}
{"target": "MRGPRF", "reagent": 2, "G2 robust z-score": 3.38}
{"target": "MRGPRF", "reagent": 3, "G2 robust z-score": "8.7 (active)"}
{"target": "KLF16", "reagent": 1, "G2 robust z-score": 0.0288}
{"target": "KLF16", "reagent": 2, "G2 robust z-score": 0.311}
{"target": "KLF16", "reagent": 3, "G2 robust z-score": 1.46}
{"target": "CKM", "reagent": 1, "G2 robust z-score": -1.59}
{"target": "CKM", "reagent": 2, "G2 robust z-score": -0.162}
{"target": "CKM", "reagent": 3, "G2 robust z-score": -0.0465}

Already shown: an excerpt of the list.
{"target": "SMARCAL1", "reagent": 2, "G2 robust z-score": 0.669}
{"target": "SMARCAL1", "reagent": 3, "G2 robust z-score": "5.39 (active)"}
